# Reference: PMC6588558
# Chains of the proteins cited; added tags and fusions are not shown. Residues count along the entry.
# UniProt P60811, residues 23-351: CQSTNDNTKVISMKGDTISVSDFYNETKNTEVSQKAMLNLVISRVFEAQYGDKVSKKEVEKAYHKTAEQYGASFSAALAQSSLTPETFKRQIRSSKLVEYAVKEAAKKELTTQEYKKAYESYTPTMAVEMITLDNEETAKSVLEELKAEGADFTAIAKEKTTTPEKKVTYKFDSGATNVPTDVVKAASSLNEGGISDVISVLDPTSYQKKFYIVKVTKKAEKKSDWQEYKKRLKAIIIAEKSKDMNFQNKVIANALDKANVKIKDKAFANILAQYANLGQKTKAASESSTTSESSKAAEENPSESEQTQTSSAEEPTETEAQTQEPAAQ
# UniProt P02649, residues 19-317: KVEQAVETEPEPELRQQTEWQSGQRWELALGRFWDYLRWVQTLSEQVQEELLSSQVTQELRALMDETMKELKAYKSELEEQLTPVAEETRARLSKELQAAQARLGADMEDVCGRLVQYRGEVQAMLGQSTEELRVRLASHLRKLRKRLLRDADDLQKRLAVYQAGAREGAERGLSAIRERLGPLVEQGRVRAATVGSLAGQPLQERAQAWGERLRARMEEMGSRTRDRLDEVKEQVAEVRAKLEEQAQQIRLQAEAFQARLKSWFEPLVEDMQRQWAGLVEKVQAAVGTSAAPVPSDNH
# UniProt P02679, residues 27-453: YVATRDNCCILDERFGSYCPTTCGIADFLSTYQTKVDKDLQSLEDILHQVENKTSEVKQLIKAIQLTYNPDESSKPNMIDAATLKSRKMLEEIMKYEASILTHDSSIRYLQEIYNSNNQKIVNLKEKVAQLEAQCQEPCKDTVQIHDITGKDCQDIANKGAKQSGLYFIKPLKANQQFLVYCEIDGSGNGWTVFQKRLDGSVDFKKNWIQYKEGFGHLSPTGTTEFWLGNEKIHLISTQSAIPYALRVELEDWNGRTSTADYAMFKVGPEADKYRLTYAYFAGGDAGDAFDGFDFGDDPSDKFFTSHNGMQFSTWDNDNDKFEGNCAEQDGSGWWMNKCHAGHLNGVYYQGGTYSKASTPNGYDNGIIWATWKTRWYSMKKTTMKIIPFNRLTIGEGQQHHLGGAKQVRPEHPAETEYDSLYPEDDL
# UniProt P02671, residues 36-866: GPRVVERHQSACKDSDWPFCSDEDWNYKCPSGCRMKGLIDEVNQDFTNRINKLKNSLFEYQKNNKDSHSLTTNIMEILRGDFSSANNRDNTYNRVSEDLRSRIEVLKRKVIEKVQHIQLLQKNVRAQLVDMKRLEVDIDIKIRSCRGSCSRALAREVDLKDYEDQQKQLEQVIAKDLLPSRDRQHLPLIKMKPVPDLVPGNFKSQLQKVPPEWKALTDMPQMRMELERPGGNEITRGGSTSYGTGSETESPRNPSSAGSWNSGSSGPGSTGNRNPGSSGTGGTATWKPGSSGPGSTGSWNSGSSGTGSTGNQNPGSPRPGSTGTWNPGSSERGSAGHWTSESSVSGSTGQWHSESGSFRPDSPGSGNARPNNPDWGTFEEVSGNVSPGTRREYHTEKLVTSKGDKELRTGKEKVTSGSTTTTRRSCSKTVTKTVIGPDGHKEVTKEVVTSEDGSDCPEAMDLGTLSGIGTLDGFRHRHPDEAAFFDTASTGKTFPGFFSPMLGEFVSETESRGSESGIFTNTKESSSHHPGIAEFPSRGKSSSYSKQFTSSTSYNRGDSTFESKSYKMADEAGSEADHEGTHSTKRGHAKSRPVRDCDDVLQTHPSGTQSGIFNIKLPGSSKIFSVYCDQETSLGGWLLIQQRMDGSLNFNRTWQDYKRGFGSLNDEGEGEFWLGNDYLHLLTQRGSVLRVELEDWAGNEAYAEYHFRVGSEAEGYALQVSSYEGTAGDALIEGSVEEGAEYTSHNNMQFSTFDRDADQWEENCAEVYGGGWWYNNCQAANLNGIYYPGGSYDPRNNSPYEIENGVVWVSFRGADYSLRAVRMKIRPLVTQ
# UniProt P02751, residues 32-2477: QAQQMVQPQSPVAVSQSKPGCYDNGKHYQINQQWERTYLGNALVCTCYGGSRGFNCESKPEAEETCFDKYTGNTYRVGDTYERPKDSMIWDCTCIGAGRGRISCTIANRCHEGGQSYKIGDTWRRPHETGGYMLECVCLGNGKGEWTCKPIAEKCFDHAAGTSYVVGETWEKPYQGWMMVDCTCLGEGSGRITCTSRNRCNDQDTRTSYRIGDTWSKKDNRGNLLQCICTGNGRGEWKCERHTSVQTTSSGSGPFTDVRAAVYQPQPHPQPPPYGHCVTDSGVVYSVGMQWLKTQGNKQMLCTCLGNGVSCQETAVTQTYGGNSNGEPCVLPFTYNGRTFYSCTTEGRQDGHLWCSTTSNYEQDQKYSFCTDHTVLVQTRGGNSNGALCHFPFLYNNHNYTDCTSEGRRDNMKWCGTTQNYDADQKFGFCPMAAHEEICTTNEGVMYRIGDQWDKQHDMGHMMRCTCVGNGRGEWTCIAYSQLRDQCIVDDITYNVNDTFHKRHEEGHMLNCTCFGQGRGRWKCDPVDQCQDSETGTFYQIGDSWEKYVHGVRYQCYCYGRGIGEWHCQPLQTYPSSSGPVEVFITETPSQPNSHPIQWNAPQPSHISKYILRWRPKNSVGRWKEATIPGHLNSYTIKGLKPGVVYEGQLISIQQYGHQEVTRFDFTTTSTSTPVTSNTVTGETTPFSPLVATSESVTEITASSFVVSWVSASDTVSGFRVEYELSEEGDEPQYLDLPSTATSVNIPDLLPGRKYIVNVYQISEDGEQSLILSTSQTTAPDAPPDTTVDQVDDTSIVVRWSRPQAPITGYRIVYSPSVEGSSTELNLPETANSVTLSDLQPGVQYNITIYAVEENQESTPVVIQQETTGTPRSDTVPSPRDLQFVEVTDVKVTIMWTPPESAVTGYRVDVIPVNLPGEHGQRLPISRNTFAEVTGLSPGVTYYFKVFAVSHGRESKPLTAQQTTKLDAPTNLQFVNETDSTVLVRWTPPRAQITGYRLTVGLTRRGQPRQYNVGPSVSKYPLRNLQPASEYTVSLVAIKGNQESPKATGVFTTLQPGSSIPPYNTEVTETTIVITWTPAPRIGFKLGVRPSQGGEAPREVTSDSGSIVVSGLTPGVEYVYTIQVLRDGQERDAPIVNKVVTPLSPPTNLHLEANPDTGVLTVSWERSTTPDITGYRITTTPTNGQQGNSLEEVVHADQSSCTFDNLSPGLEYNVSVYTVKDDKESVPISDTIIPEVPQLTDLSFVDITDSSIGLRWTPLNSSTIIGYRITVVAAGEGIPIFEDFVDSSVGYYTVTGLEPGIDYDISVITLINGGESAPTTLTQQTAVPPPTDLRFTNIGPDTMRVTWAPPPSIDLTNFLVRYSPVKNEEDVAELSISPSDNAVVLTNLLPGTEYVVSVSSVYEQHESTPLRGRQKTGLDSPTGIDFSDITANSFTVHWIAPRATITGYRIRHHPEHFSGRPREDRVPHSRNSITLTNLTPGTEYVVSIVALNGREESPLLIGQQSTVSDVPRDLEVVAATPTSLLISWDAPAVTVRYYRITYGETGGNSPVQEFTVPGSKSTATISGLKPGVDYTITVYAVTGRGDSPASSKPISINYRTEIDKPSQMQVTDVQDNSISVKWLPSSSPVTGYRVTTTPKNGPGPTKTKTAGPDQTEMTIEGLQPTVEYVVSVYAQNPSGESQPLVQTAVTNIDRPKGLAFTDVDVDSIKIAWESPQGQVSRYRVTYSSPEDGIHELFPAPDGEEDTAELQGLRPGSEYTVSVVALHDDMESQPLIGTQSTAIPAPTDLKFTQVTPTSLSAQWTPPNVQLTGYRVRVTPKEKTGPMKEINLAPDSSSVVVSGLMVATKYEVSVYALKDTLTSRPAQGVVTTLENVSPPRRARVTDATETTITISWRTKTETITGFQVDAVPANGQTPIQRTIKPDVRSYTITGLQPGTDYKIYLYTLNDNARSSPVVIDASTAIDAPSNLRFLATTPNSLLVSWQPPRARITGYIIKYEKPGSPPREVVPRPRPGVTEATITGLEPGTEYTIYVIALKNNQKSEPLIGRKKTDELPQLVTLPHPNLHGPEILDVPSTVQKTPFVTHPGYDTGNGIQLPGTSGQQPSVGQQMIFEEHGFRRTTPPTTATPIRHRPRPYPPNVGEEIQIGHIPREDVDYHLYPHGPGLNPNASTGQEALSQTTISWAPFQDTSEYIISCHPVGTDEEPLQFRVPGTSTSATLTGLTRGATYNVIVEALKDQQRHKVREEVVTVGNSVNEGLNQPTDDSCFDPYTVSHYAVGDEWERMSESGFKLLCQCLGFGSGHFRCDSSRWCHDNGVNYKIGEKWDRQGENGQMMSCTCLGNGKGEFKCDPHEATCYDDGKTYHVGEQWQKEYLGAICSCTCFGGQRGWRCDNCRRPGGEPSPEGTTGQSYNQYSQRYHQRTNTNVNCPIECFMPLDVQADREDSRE
# Where two headings read alike, the source gives them in different places. No constants are given. Whether binding was seen depends on the method and setting. In cells and extracts the contact can be indirect. Some results given as binding are weak or reduced against the parent protein; the word gives no strength.
# T1: CovR (S. pyogenes (endogenous in strain SF370)) (UniProt O87527)
# T1 sequence: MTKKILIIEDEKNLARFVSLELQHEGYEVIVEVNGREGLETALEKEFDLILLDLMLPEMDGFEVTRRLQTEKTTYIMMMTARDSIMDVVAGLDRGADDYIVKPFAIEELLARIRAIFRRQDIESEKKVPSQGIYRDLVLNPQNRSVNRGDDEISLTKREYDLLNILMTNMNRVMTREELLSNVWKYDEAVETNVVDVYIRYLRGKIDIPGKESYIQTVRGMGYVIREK
# B1: CFHR5 (protein, UniProt Q9BXR6 19-569)
# chain: EGTLCDFPKIHHGFLYDEEDYNPFSQVPTGEVFYYSCEYNFVSPSKSFWTRITCTEEGWSPTPKCLRMCSFPFVKNGHSESSGLIHLEGDTVQIICNTGYSLQNNEKNISCVERGWSTPPICSFTKGECHVPILEANVDAQPKKESYKVGDVLKFSCRKNLIRVGSDSVQCYQFGWSPNFPTCKGQVRSCGPPPQLSNGEVKEIRKEEYGHNEVVEYDCNPNFIINGPKKIQCVDGEWTTLPTCVEQVKTCGYIPELEYGYVQPSVPPYQHGVSVEVNCRNEYAMIGNNMITCINGIWTELPMCVATHQLKRCKIAGVNIKTLLKLSGKEFNHNSRIRYRCSDIFRYRHSVCINGKWNPEVDCTEKREQFCPPPPQIPNAQNMTTTVNYQDGEKVAVLCKENYLLPEAKEIVCKDGRWQSLPRCVESTAYCGPPPSINNGDTTSFPLSVYPPGSTVTYRCQSFYKLQGSVTVTCRNKQWSEPPRCLDPCVVSEENMNKNNIQLKWRNDGKLYAKTGDAVEFQCKFPHKAMISSPPFRAICQEGKFEYPICE
# B2: PROS1 (protein, UniProt P07225 42-676)
# chain: ANSLLEETKQGNLERECIEELCNKEEAREVFENDPETDYFYPKYLVCLRSFQTGLFTAARQSTNAYPDLRSCVNAIPDQCSPLPCNEDGYMSCKDGKASFTCTCKPGWQGEKCEFDINECKDPSNINGGCSQICDNTPGSYHCSCKNGFVMLSNKKDCKDVDECSLKPSICGTAVCKNIPGDFECECPEGYRYNLKSKSCEDIDECSENMCAQLCVNYPGGYTCYCDGKKGFKLAQDQKSCEVVSVCLPLNLDTKYELLYLAEQFAGVVLYLKFRLPEISRFSAEFDFRTYDSEGVILYAESIDHSAWLLIALRGGKIEVQLKNEHTSKITTGGDVINNGLWNMVSVEELEHSISIKIAKEAVMDINKPGPLFKPENGLLETKVYFAGFPRKVESELIKPINPRLDGCIRSWNLMKQGASGIKEIIQEKQNKHCLVTVEKGSYYPGSGIAQFHIDYNNVSSAEGWHVNVTLNIRPSTGTGVMLALVSGNNTVPFAVSLVDSTSEKSQDILLSVENTVIYRIQALSLCSDQQSHLEFRVNRNNLELSTPLKIETISHEDLQRQLAVLDKAMKAKVATYLGGLPDVPFSATPVNAFYNGCMEVNINGVQLDLDEAISKHNDIRAHSCPSVWKKTKNS
# Assays:
# Assay in all cases: cross-linking
# [1] = target: Foldase protein PrsA1 (S. pyogenes (endogenous in strain SF370)) (UniProt P60811)
# [2] = target: T1, CovR (S. pyogenes (endogenous in strain SF370))
# [3] = target: T1, CovR (S. pyogenes (endogenous in strain SF370)); remark: listed apart in the source
# [4] = target: Foldase protein PrsA1 (S. pyogenes (endogenous in strain SF370)) (UniProt P60811); remark: listed apart in the source
Molecule,binding [2],also measured
APOE (from UniProt P02649 19-317),–,binding [1]: binds
FGG (from UniProt P02679 27-453),binds,–
fibrinogen chain alpha (from UniProt P02671 36-866),binds,–
fibronectin (from UniProt P02751 32-2477),binds,–
B1,–,binding [3]: binds
B2,–,binding [4]: binds
